Laboratory results reported in patent US20110178107A1, “HCV PROTEASE INHIBITORS” (TaiGen Biotechnology Co., Ltd., priority 2010, published 2011).
Some entries share one result that the patent states for a list of compounds.

Biological target: T1, NS3/4A protease (Hepatitis C virus genotype 1a, UniProt P27958)
T1 construct: N-terminal His6-tagged-NS4A(21-32)-GSGS-NS3(3-181); made in house; host or cells: E. coli BL21(DE3) pLysS
Test: Inhibition of NS3/4A protease activity (HPLC microbore assay)
Format: biochemical, HCV
Conditions: 2 nM NS3/4A protease, 30 minutes at 30° C; call rule not given here.

Compound | inhibiting NS3/4A activity
COc1ccc(-c2cc(O[C@@H]3C[C@H]4C(=O)N[C@]5(C(=O)NS(=O)(=O)C6(C)CC6)C[C@H]5/C=C\CCCCC[C@H](NC(=O)OC5CCCC5)C(=O)N4C3)n3nc4ccccc4c3n2)cc1 [Compound 288] | active
C=C[C@@H]1CC1(NC(=O)[C@@H]1C[C@@H](Oc2nc(-c3ccc(OC(C)C)cc3)nc3c2oc2ccccc23)CN1C(=O)[C@@H](Nc1nc(C(=O)OC)cs1)C(C)(C)C)C(=O)NS(=O)(=O)C1CC1 (stereo partly drawn) [Compound 100, methyl 2-((2S)-1-((2S,4R)-2-((2S)-1-(cyclopropylsulfonylcarbamoyl)-2-vinylcyclopropyl-carbamoyl)-4-(2-(4-isopropoxyphenyl)benzofuro[3,2-d]pyrimidin-4-yloxy)pyrrolidin-1-yl)-3,3-dimethyl-1-oxobutan-2-ylamino)thiazole-4-carboxylate] | active
C=C[C@@H]1C[C@]1(NC(=O)[C@@H]1C[C@@H](Oc2nc(-c3ccc(OC(C)C)cc3)nc3c2sc2ccccc23)CN1C(=O)[C@@H](Nc1ccc(C(F)(F)F)cc1)C(C)(C)C)C(=O)NS(=O)(=O)C1CC1 [Compound 119] | active
Cc1cc(-c2cc(O[C@@H]3C[C@H]4C(=O)N[C@]5(C(=O)NS(=O)(=O)C6CC6)C[C@H]5/C=C\CCCCC[C@H](NC(=O)OC5CCCC5)C(=O)N4C3)n3nc4ccccc4c3n2)no1 [Compound 278] | active
CC1(S(=O)(=O)NC(=O)[C@@]23C[C@H]2/C=C\CCCCC[C@H](NC(=O)OC2CCCC2)C(=O)N2C[C@H](Oc4cc(-c5ccccc5)nc5c6ccccc6nn45)C[C@H]2C(=O)N3)CC1 [Compound 287] | active
C=C[C@@H]1C[C@]1(NC(=O)[C@@H]1C[C@@H](Oc2nc(-c3ccc(C(F)(F)F)cc3)nc3c2oc2ccccc23)CN1C(=O)[C@@H](Nc1cccc(C(=O)N(C)C)c1)C(C)(C)C)C(=O)NS(=O)(=O)C1CC1 [Compound 63] | active
C=C[C@@H]1C[C@]1(NC(=O)[C@@H]1C[C@@H](Oc2nc(-c3ccc(C(F)(F)F)cc3)nc3c2oc2ccccc23)CN1C(=O)[C@@H](Nc1ccc(F)cc1)C1CCCCC1)C(=O)NS(=O)(=O)C1CC1 [Compound 45] | active
C=C[C@@H]1C[C@]1(NC(=O)[C@@H]1C[C@@H](Oc2nc(-c3ccc(C(F)(F)F)cc3)nc3c2oc2ccccc23)CN1C(=O)[C@@H](Nc1nc(C(=O)NC)cs1)C1CCCCC1)C(=O)NS(=O)(=O)C1CC1 [Compound 66] | active
C=C[C@@H]1C[C@]1(NC(=O)[C@@H]1C[C@@H](Oc2nc(-c3ccc(OC(C)C)cc3)nc3c2oc2ccc(F)cc23)CN1C(=O)[C@@H](Nc1nc(C(=O)OC)cs1)C1CCCCC1)C(=O)NS(=O)(=O)C1CC1 [Compound 164] | active
C=C[C@@H]1C[C@]1(NC(=O)[C@@H]1C[C@@H](Oc2nc(-c3ccc(OC(C)C)cc3)nc3c2oc2ccccc23)CN1C(=O)[C@@H](Nc1nc(C(=O)OCC)cs1)C(C)(C)C)C(=O)NS(=O)(=O)C1CC1 [Compound 99] | active
O=C(N[C@H]1CCCCC/C=C\[C@@H]2C[C@@]2(C(=O)NS(=O)(=O)C2CC2)NC(=O)[C@@H]2C[C@@H](Oc3cc(C4CC4)nc4c5cccc(C(F)(F)F)c5nn34)CN2C1=O)OC1CCCC1 [Compound 286] | active
C=C[C@@H]1C[C@]1(NC(=O)[C@@H]1C[C@@H](Oc2nc(-c3ccc(C(F)(F)F)cc3)nc3c2oc2ccccc23)CN1C(=O)[C@@H](Nc1nc(C)cs1)C1CCCCC1)C(=O)NS(=O)(=O)C1CC1 [Compound 21] | active
C=C[C@@H]1C[C@]1(NC(=O)[C@@H]1C[C@@H](Oc2nc(-c3ccc(C(F)(F)F)cc3)nc3c2sc2ccccc23)CN1C(=O)[C@@H](Nc1nc(C)c(C)s1)C(C)(C)C)C(=O)NS(=O)(=O)C1CC1 [Compound 103] | active
C=C[C@@H]1C[C@]1(NC(=O)[C@@H]1C[C@@H](Oc2nc(-c3ccc(C(F)(F)F)cc3)nc3c2oc2ccccc23)CN1C(=O)[C@@H](Nc1nc(C(=O)N(C)CC)cs1)C(C)C)C(=O)NS(=O)(=O)C1CC1 [Compound 72] | active
COc1ccc(-c2cc(O[C@@H]3C[C@H]4C(=O)N[C@]5(C(=O)NS(=O)(=O)C6CC6)C[C@H]5/C=C\CCCCC[C@H](NC(=O)OC5CCCC5)C(=O)N4C3)n3nc4cccc(OC)c4c3n2)cc1 [Compound 263] | active
CC[C@@H]1C[C@]1(NC(=O)[C@@H]1C[C@@H](Oc2nc(-c3ccc(C(F)(F)F)cc3)nc3c2oc2ccccc23)CN1C(=O)[C@@H](Nc1nc(C)cs1)C(C)C)C(=O)NS(=O)(=O)C1CC1 [Compound 6] | active
C=C[C@@H]1C[C@]1(NC(=O)[C@@H]1C[C@@H](Oc2nc(-c3ccc(OC(C)C)cc3)nc3c2sc2ccccc23)CN1C(=O)[C@@H](Nc1cncnc1)C(C)(C)C)C(=O)NS(=O)(=O)C1CC1 [Compound 137] | active
COc1ccc(-c2cc(O[C@@H]3C[C@H]4C(=O)N[C@]5(C(=O)NS(=O)(=O)C6CC6)C[C@H]5/C=C\CCCCC[C@H](NC(=O)OC5CCCC5)C(=O)N4C3)n3nc4ccc(C)cc4c3n2)cc1 [Compound 267] | active

Compound | inhibiting NS3/4A activity
C=C[C@@H]1C[C@]1(NC(=O)[C@@H]1C[C@@H](Oc2nc(-c3ccc(OC(C)C)cc3)nc3c2oc2ccccc23)CN1C(=O)[C@@H](Nc1nc(C)c(C)s1)C(C)(C)C)C(=O)NS(=O)(=O)C1CC1 [Compound 94] | active
COc1cccc(-c2cc(O[C@@H]3C[C@H]4C(=O)N[C@]5(C(=O)NS(=O)(=O)C6CC6)C[C@H]5/C=C\CCCCCCC(=O)N4C3)n3nc4ccccc4c3n2)c1 [Compound 299] | active
CC(C)(C)OC(=O)N[C@H]1CCCCC/C=C\[C@@H]2C[C@@]2(C(=O)NS(=O)(=O)C2CC2)NC(=O)[C@@H]2C[C@@H](Oc3cc(-c4ccco4)nc4c5ccccc5nn34)CN2C1=O [Compound 294] | active
Cc1ccc(-c2cc(O[C@@H]3C[C@H]4C(=O)N[C@]5(C(=O)NS(=O)(=O)C6CC6)C[C@H]5/C=C\CCCCC[C@H](NC(=O)OC5CCCC5)C(=O)N4C3)n3nc4ccccc4c3n2)cc1 [Compound 234] | active
CC[C@@H]1C[C@]1(NC(=O)[C@@H]1C[C@@H](Oc2nc(-c3ccc(C(F)(F)F)cc3)nc3c2oc2ccccc23)CN1C(=O)[C@@H](Nc1cc(F)cc(F)c1)C(C)(C)C)C(=O)NS(=O)(=O)C1CC1 [Compound 37] | active
CNC(=O)c1ccc(N[C@H]2CCCCC/C=C\[C@@H]3C[C@@]3(C(=O)NS(=O)(=O)C3CC3)NC(=O)[C@@H]3C[C@@H](Oc4nc(-c5ccc(C(F)(F)F)cc5)nc5c4oc4ccccc45)CN3C2=O)cc1 [Compound 206] | active
C=C[C@@H]1C[C@]1(NC(=O)[C@@H]1C[C@@H](Oc2nc(-c3ccc(C(F)(F)F)cc3)nc3c2oc2ccccc23)CN1C(=O)[C@@H](Nc1nc(C(=O)O)cs1)C(C)C)C(=O)NS(=O)(=O)C1CC1 [Compound 67] | active
C=C[C@@H]1C[C@]1(NC(=O)[C@@H]1C[C@@H](Oc2nc(-c3ccc(OC(C)C)cc3)nc3c2sc2ccccc23)CN1C(=O)[C@@H](Nc1cccc(F)c1)C(C)(C)C)C(=O)NS(=O)(=O)C1CC1 [Compound 118] | active
C=C[C@@H]1C[C@]1(NC(=O)[C@@H]1C[C@@H](Oc2nc(-c3ccc(C(F)(F)F)cc3)nc3c2oc2ccccc23)CN1C(=O)[C@@H](Nc1ccc(C(=O)NC(C)C)cc1)C(C)(C)C)C(=O)NS(=O)(=O)C1CC1 [Compound 89] | active
CC(C)Oc1ccc2c(c1)nn1c(O[C@@H]3C[C@H]4C(=O)N[C@]5(C(=O)NS(=O)(=O)C6CC6)C[C@H]5/C=C\CCCCC[C@H](NC(=O)OC5CCCC5)C(=O)N4C3)cc(-c3ccccc3)nc21 [Compound 258] | active
O=C(N[C@H]1CCCCC/C=C\[C@@H]2C[C@@]2(C(=O)NS(=O)(=O)C2CC2)NC(=O)[C@@H]2C[C@@H](Oc3cc(-c4ccc(F)cc4)nc4c5ccccc5nn34)CN2C1=O)OC1CCCC1 [Compound 241] | active
C=C[C@@H]1C[C@]1(NC(=O)[C@@H]1C[C@@H](Oc2nc(-c3ccc(OC(C)C)cc3)nc3c2oc2ccccc23)CN1C(=O)[C@@H](Nc1nc(C(C)C)cs1)C(C)(C)C)C(=O)NS(=O)(=O)C1CC1 [Compound 127] | active
C=C[C@@H]1C[C@]1(NC(=O)[C@@H]1C[C@@H](Oc2nc(-c3ccc(C(F)(F)F)cc3)nc3c2oc2ccccc23)CN1C(=O)[C@@H](Nc1nc(CC)c(C(=O)OC)s1)C(C)(C)C)C(=O)NS(=O)(=O)C1CC1 [Compound 114] | active
C=C[C@@H]1C[C@]1(NC(=O)[C@@H]1C[C@@H](Oc2nc(-c3ccc(OC(C)C)cc3)nc3c2oc2ccccc23)CN1C(=O)[C@@H](Nc1nc(CC(=O)OCC)cs1)C(C)(C)C)C(=O)NS(=O)(=O)C1CC1 [Compound 135] | active
CC(C)Oc1ccc(-c2nc(O[C@@H]3C[C@H]4C(=O)N[C@]5(C(=O)NS(=O)(=O)C6CC6)C[C@H]5/C=C\CCCCC[C@H](Nc5nccc(Cl)n5)C(=O)N4C3)c3oc4ccc(F)cc4c3n2)cc1 [Compound 227] | active
C=C[C@@H]1C[C@]1(NC(=O)[C@@H]1C[C@@H](Oc2nc(-c3ccc(OC(C)C)cc3)nc3c2oc2ccc(F)cc23)CN1C(=O)[C@@H](Nc1ccccc1)C(C)(C)C)C(=O)NS(=O)(=O)C1CC1 [Compound 143] | active
C=C[C@@H]1C[C@]1(NC(=O)[C@@H]1C[C@@H](Oc2nc(-c3ccc(OC(C)C)cc3)nc3c2oc2cccnc23)CN1C(=O)[C@@H](Nc1nc(C)c(C(=O)OC)s1)C(C)(C)C)C(=O)NS(=O)(=O)C1CC1 [Compound 166] | active
C=C[C@@H]1C[C@]1(NC(=O)[C@@H]1C[C@@H](Oc2nc(-c3ccc(C(F)(F)F)cc3)nc3c2oc2ccccc23)CN1C(=O)[C@@H](Nc1nc(C(=O)NC2CC2)cs1)C(C)(C)C)C(=O)NS(=O)(=O)C1CC1 [Compound 57] | active
